US20060281686A1 (priority 2002, published 2006)

Experiment: general procedure: peptide synthesis; Rink resin NOVASYN TGR resin LL (0.23 mmol/g)
Conditions: whole synthesis, scale of the general procedure 11.7 g resin

Ac-L[azaPro]FFD-NH2 (SMILES CC(=O)N[C@@H](CC(C)C)C(=O)N1CCCN1C(=O)N[C@@H](Cc1ccccc1)C(=O)N[C@@H](Cc1ccccc1)C(=O)N[C@@H](CC(=O)O)C(N)=O)
final purity (method not given): purity 95%

*1 amine or outer side, *2 acyl side, *3 side chain or, on linkers, in order; H or OH if unused. [ ]: non-standard residue; d: D form. azaPro = O=C(N1CCCN1[*:1])[*:2]
